Laboratory results: PubChem BioAssay AID1671195 (Yale University, 2021)
In all, the deposit lists about 22,000 reagents; this is a part drawn at random. Over the whole deposit, about 1,510 (6.9%) are marked active. 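Active includes knockdowns raising or lowering LDL uptake; positive z-scores mean more uptake, negative mean less.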 Reagent sequences are not shown.

Screen: 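Genes whose knockdown alters LDL uptake in liver cancer cells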 (primary screen)
Cell system: human Huh7 hepatoma cells
Reagent: siRNA pool against human genes, 18 nM
Time to read-out: about 2 to 2.5 days of knockdown, then 8 h LDL uptake
Conditions: DiI-labelled LDL at 30 µg/ml for 8 h, in lipoprotein-deficient serum medium
Measurement: 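Per-cell DiI-LDL intensity by automated imaging; well means scaled to the plate median and given as a robust z-score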
Reading the numbers: robust z-score: higher = more LDL uptake after knockdown
Active means: 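a gene counts as active if at least two replicate z-scores exceed ±2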

CLEC4GP1 — robust z-score, replicate 1: 0.39; robust z-score, replicate 2: 0.332; robust z-score, replicate 3: 0.255; call: inactive
ADGRL4 — robust z-score, replicate 1: -0.721; robust z-score, replicate 2: -0.593; robust z-score, replicate 3: 0.268; call: inactive
LPIN3 — robust z-score, replicate 1: -0.535; robust z-score, replicate 2: -0.129; robust z-score, replicate 3: -0.683; call: inactive
SPTLC2 — robust z-score, replicate 1: -1.14; robust z-score, replicate 2: -1.32; robust z-score, replicate 3: -0.933; call: inactive
LOC441732 (retired record) — robust z-score, replicate 1: 0.0874; robust z-score, replicate 2: 0.0657; robust z-score, replicate 3: 0.847; call: inactive
SNF8 — robust z-score, replicate 1: -0.402; robust z-score, replicate 2: 1.05; robust z-score, replicate 3: -0.962; call: inactive
CIMIP2C — robust z-score, replicate 1: 1.94; robust z-score, replicate 2: 2.25; robust z-score, replicate 3: 1.86; call: active
PPP1R13B-DT — robust z-score, replicate 1: -0.0922; robust z-score, replicate 2: -0.52; robust z-score, replicate 3: 0.879; call: inactive
ZNF593 — robust z-score, replicate 1: -0.416; robust z-score, replicate 2: -0.559; robust z-score, replicate 3: 0.31; call: inactive
LOC441388 (retired record) — robust z-score, replicate 1: 1.13; robust z-score, replicate 2: 0.443; robust z-score, replicate 3: 0.648; call: inactive
ZNF397 — robust z-score, replicate 1: -0.433; robust z-score, replicate 2: -0.681; robust z-score, replicate 3: -0.896; call: inactive
OR5B12 — robust z-score, replicate 1: -1.07; robust z-score, replicate 2: -0.846; robust z-score, replicate 3: -0.814; call: inactive
MYADML2 — robust z-score, replicate 1: -0.247; robust z-score, replicate 2: -0.0899; robust z-score, replicate 3: -0.362; call: inactive
ANXA2R — robust z-score, replicate 1: 0.63; robust z-score, replicate 2: 1.17; robust z-score, replicate 3: 1.13; call: inactive
TAF4B — robust z-score, replicate 1: 0.553; robust z-score, replicate 2: -0.0722; robust z-score, replicate 3: -0.397; call: inactive

Single entries from the list:
Result of ADGRL4 in “robust z-score, replicate 1”: -0.721
For “call”, MYADML2 is entered as inactive

The list goes on.
IQGAP1 — robust z-score, replicate 1: -1.1; robust z-score, replicate 2: -0.954; robust z-score, replicate 3: -0.727; call: inactive
IRAK2 — robust z-score, replicate 1: -0.855; robust z-score, replicate 2: -1.21; robust z-score, replicate 3: -0.795; call: inactive
CLEC2B — robust z-score, replicate 1: 0.43; robust z-score, replicate 2: -0.783; robust z-score, replicate 3: 0.508; call: inactive
EMC4 — robust z-score, replicate 1: -2.06; robust z-score, replicate 2: -0.647; robust z-score, replicate 3: 0.00736; call: inactive
CREBL2 — robust z-score, replicate 1: -0.303; robust z-score, replicate 2: -0.888; robust z-score, replicate 3: -1.55; call: inactive
GPR62 — robust z-score, replicate 1: 0.265; robust z-score, replicate 2: -1.01; robust z-score, replicate 3: -0.14; call: inactive
PRR29-AS1 — robust z-score, replicate 1: -0.413; robust z-score, replicate 2: -0.476; robust z-score, replicate 3: -0.389; call: inactive
ME1 — robust z-score, replicate 1: 0.62; robust z-score, replicate 2: 1.29; robust z-score, replicate 3: 0.542; call: inactive
CDADC1 — robust z-score, replicate 1: -1.15; robust z-score, replicate 2: -1.31; robust z-score, replicate 3: -1.49; call: inactive
